PubChem BioAssay AID1508588, Peter MacCallum Cancer Centre – 2020

Purpose: 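Which gene losses make BRAF-mutant melanoma cells more responsive to vemurafenib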 (primary screen)
Cells: human WM266.4 melanoma cells (BRAF V600 mutant)
Knock-down reagent: siRNA pool against human genes, 40 nM
Time to read-out: 96 h from transfection to read-out
Treatment: vemurafenib 300 nM (about IC25), added 48 h after transfection, for 48 h; comparison arm got DMSO vehicle only
Read-out: 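Ratios to non-targeting siRNA for cell gain, counted as DAPI nuclei after minus before drug and averaged over two replicates, and for absorbance-read medium lactate per cell; both binned into fold-change classes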
Scale: cell gain with vemurafenib: higher = more cell gain than with non-targeting siRNA; lactate per cell with vemurafenib: higher = more lactate made per cell
Call rule: 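Enhancement is called by pairing each knock-down's vehicle-arm and drug-arm fold-change classes for viability or glycolysis; which class combinations qualify is not given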
Meaning of the calls: active = enhances vemurafenib effect; inactive = no enhancement seen
In all, the deposit lists about 18,000 reagents; shown is an unselected part. 790 of them (4.4%) count as active. 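Calls rest on a combination of fold-change classes in drug and vehicle arms, not all shown here.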 Unmarked entries are inactive.

With BMP6, what was measured?
cell gain with vemurafenib: 0.8; lactate per cell with vemurafenib: 0.73

Which result is listed for ITPK1?
cell gain with vemurafenib: 0.3; lactate per cell with vemurafenib: 1.77

How did the screen score CFAP61?
cell gain with vemurafenib: 0.82; lactate per cell with vemurafenib: 0.55

How did the screen score FZD9?
cell gain with vemurafenib: 0.27; lactate per cell with vemurafenib: 2.9

What did the screen give for LOC402715?
cell gain with vemurafenib: 0.79; lactate per cell with vemurafenib: 0.88

For KRTAP15-1, what does the deposit list?
cell gain with vemurafenib: 0.11 (active); lactate per cell with vemurafenib: 0.67

For WDR49, what was measured?
cell gain with vemurafenib: 0.39; lactate per cell with vemurafenib: 0.94

What is on record for ADO?
cell gain with vemurafenib: 1.05; lactate per cell with vemurafenib: 0.74

How did the screen score MXRA8?
cell gain with vemurafenib: 0.36; lactate per cell with vemurafenib: 2.05

For OR56B4, what does the deposit list?
cell gain with vemurafenib: -0.02; lactate per cell with vemurafenib: 2.99

What did the screen give for SACK1F?
cell gain with vemurafenib: 0.75; lactate per cell with vemurafenib: 1.79

With ESAM, how do the results read?
cell gain with vemurafenib: 0.47; lactate per cell with vemurafenib: 1.04

For NCKIPSD, what does the deposit list?
cell gain with vemurafenib: 0.31; lactate per cell with vemurafenib: 1.36

What is on record for DDO?
cell gain with vemurafenib: 1.01; lactate per cell with vemurafenib: 1.24

What is on record for CDK19?
cell gain with vemurafenib: 0.57; lactate per cell with vemurafenib: 0.7

Which result is listed for FZD7?
cell gain with vemurafenib: 0.22 (active); lactate per cell with vemurafenib: 0.41

Which result is listed for ZNF675?
cell gain with vemurafenib: 0.96 (active); lactate per cell with vemurafenib: 0.41

What is on record for ZNF92?
cell gain with vemurafenib: 0.91; lactate per cell with vemurafenib: 0.86

How did the screen score RCHY1?
cell gain with vemurafenib: 1; lactate per cell with vemurafenib: 0.68

Which result is listed for PRKRA?
cell gain with vemurafenib: 0.64; lactate per cell with vemurafenib: 1.12

For SLX9, how do the results read?
cell gain with vemurafenib: 0.78; lactate per cell with vemurafenib: 1.19

For FAU, how do the results read?
cell gain with vemurafenib: 0.05; lactate per cell with vemurafenib: 0.88

With CENPU, what was measured?
cell gain with vemurafenib: 0.78; lactate per cell with vemurafenib: 1.08

With OR52K1, what does the deposit list?
cell gain with vemurafenib: 0.31; lactate per cell with vemurafenib: 0.73

How did the screen score CDC42BPG?
cell gain with vemurafenib: 0.54; lactate per cell with vemurafenib: 1.16

What did the screen give for KCNK17?
cell gain with vemurafenib: 0.77; lactate per cell with vemurafenib: 0.9

Part of the list above in another layout.
{"gene knocked down":"ESAM","cell gain with vemurafenib":0.47,"lactate per cell with vemurafenib":1.04}
{"gene knocked down":"NCKIPSD","cell gain with vemurafenib":0.31,"lactate per cell with vemurafenib":1.36}
{"gene knocked down":"DDO","cell gain with vemurafenib":1.01,"lactate per cell with vemurafenib":1.24}
{"gene knocked down":"CDK19","cell gain with vemurafenib":0.57,"lactate per cell with vemurafenib":0.7}
{"gene knocked down":"FZD7","cell gain with vemurafenib":"0.22 (active)","lactate per cell with vemurafenib":0.41}

Next records:
For CCDC3, what does the deposit list?
cell gain with vemurafenib: -0.02 (active); lactate per cell with vemurafenib: 1.19

With COPRS, how do the results read?
cell gain with vemurafenib: 1.05; lactate per cell with vemurafenib: 0.4

Which result is listed for TECRL?
cell gain with vemurafenib: 0.46; lactate per cell with vemurafenib: 1.04

For PAIP1, what does the deposit list?
cell gain with vemurafenib: 0.76; lactate per cell with vemurafenib: 1.1

For SAMD11, how do the results read?
cell gain with vemurafenib: 0.66; lactate per cell with vemurafenib: 0.53

With C11orf68, what was measured?
cell gain with vemurafenib: 0.64; lactate per cell with vemurafenib: 0.92

With MST1R, what does the deposit list?
cell gain with vemurafenib: 0.51; lactate per cell with vemurafenib: 0.7

What is on record for ZNF438?
cell gain with vemurafenib: 0.6; lactate per cell with vemurafenib: 0.48

For TEAD1, how do the results read?
cell gain with vemurafenib: 0.43; lactate per cell with vemurafenib: 1.39

Which result is listed for FAM218A?
cell gain with vemurafenib: 0.81; lactate per cell with vemurafenib: 0.73

For TAS2R20, how do the results read?
cell gain with vemurafenib: 0.59; lactate per cell with vemurafenib: 0.86

How did the screen score ABCB7?
cell gain with vemurafenib: 0.27; lactate per cell with vemurafenib: 0.64

With MMP10, how do the results read?
cell gain with vemurafenib: 0.31; lactate per cell with vemurafenib: 0.5

For WDR75, how do the results read?
cell gain with vemurafenib: 0.22; lactate per cell with vemurafenib: 1.67

How did the screen score THOC7?
cell gain with vemurafenib: 0.96; lactate per cell with vemurafenib: 0.78

Which result is listed for ZNF285?
cell gain with vemurafenib: 0.85; lactate per cell with vemurafenib: 0.6

For DGKB, what was measured?
cell gain with vemurafenib: 0.5; lactate per cell with vemurafenib: 0.9

With CCND2, what does the deposit list?
cell gain with vemurafenib: 0.76; lactate per cell with vemurafenib: 0.69

With HARS1, what was measured?
cell gain with vemurafenib: 0.92; lactate per cell with vemurafenib: 1.44

What did the screen give for TMEM150A?
cell gain with vemurafenib: 0.56; lactate per cell with vemurafenib: 0.96

What is on record for RPP14?
cell gain with vemurafenib: 0.49; lactate per cell with vemurafenib: 1.49

With HGD, how do the results read?
cell gain with vemurafenib: 0.53; lactate per cell with vemurafenib: 1.34

With CAMK2N2, what was measured?
cell gain with vemurafenib: 0.4; lactate per cell with vemurafenib: 0.54

How did the screen score PSEN2?
cell gain with vemurafenib: 0.25; lactate per cell with vemurafenib: 0.57

For PDGFA, what does the deposit list?
cell gain with vemurafenib: 0.99; lactate per cell with vemurafenib: 1.06

What is on record for SPMIP8?
cell gain with vemurafenib: 0.82; lactate per cell with vemurafenib: 0.44
